Assay results published in paper PMC7385626 (Scientific Reports, 2020).
Like-named read-outs stand apart in the source and are kept apart here.

Key:
Assay in all cases: BrdU Cell Proliferation Assay (BCPA)
[1] = system: HT29; type: cell-based, human
Excerpt: (§1) The antiproliferative activities of Ag(I) molecules and the starting molecules of the parent molecules, N-bishydeten and [Ag(CN)2]^− compound, on cells, were monitored utilizing by the BrdU Cell Proliferation Assay (BCPA) (Fig. 6).
(§2) The antiproliferative activity of the 2, 3, 4, [Ag(CN)2]^− and 5FU against various cell lines (HeLa ATCC CCL-2, C6 cells ATCC CCL-107, HT29 ATCC HTB-38, and Vero ATCC CCL-81) were preserved and maintained in Dulbecco’s modified eagle’s medium, supplemented with %2 antibiotic (Streptomycin-Penicillin) solution and 10% fetal bovine serum.
(§3) The cell suspension including 5×10^3 cells in 100 µL was supplied into the well cell plates (96-well cell). The therapies of these cells with 2, 3, 4 and [Ag(CN)2]^− in DMSO (max 0.1% DMSO) and 5-Florouracil (5 FU) molecule in DMSO (max 0.1% DMSO) separately at concentration 0.25, 0.50, 1.00, 1.50, 2.00, 2.50, 3.75, and 5.00 µg/mL were carried out. The last volume was adapted to 200 µL by mixture and DMEM and also incubated for 24 h at 37°C with 5% CO2. The antiproliferative activities of the 2, 3, 4 and [Ag(CN)2]^− were determined with using BrdU Cell proliferation ELISA Kit conforming to manufacturer’s assay.
(§4) IC50 values the concentration of a factor which required for other method of in vitro.

[2] = system: HeLa; type: cell-based; settings: IC50 of normal cells (Vero) divided by IC50 of HeLa
Excerpt: as §1, §2, §3, §4

[3] = system: C6; type: cell-based
Excerpt: as §1, §2, §3, §4

Molecule | Tumor specificity index HT29 ([1]; IC50 of normal cells (Vero) divided by IC50 of HT29) | Tumor specificity index HeLa [2] | Tumor specificity index C6 ([3]; IC50 of normal cells (Vero) divided by IC50 of C6) | Tumor specificity index HT29 [1] | Tumor specificity index C6 [3]
O=c1[nH]cc(F)c(=O)[nH]1 [5FU, 5-fluorouracil, reference compound] | 1.00 | 0.94 | 1.19 |  | 
[Cd(N-bishydeten)]4[Ag(CN)2]8[Ag(CN)]2 [Complex 4] |  |  |  | 1.31 | 1.05
[Zn(N-bishydeten)Ag3(CN)5] [Complex 3] |  |  |  | 1.29 | 0.92
[Cu(N-bishydeten)Ag3(CN)5] [Complex 2] |  |  |  | 3.23 | 2.96
